{
  "source": "paper PMC9927457",
  "about": "(Microbiology Spectrum, 2023)",
  "assay": "Caco-2 permeability",
  "settings": "human",
  "procedure": "Permeability was measured across Caco-2 cells cultured in a Millipore 96-well Caco-2 plate. For apical to basolateral (A→B) permeability, 10 μM compound was added to the apical (A) side and amount of permeation was determined on the basolateral (B) side; for basolateral to apical (B→A) permeability, the compound was added to the B side and the amount of permeation was determine on the A side. Time points were taken at 2 h.\nTable S2. Permeability. Permeability was measured using Caco-2 cells after 1 and 2 hours incubation with compound. (A→B) is Apical to Basolateral; (B→A) is Basolateral to Apical. Data is expressed as permeability (10-6 cm s-1). dQ/dt is rate of permeation, C0 is initial concentration […]\nArticle Duration direction value replicate replicate mean recovery",
  "data": [
    {"smiles": "CC(C)NCC(O)COc1ccc(CC(N)=O)cc1", "note": "(stereo not shown) [Atenolol, atenolol, reference compound]", "values": [
      {"measurement": "Papp B→A at 2 h, 10 µM", "value": 0.3, "unit": "×10⁻⁶ cm/s"}
    ]}
  ]
}
